Measured values taken from PubChem BioAssay AID1794845 (National Center for Advancing Translational Sciences (NCATS), 2023).
Screen size: about 6,900 compounds; fewer than 10 were called active. Calls follow the shape of the dose curve; as a rule, active = well fitted curve in the direction sought with a large enough effect; inconclusive = small, poorly fitted or top-dose-only effect, or another doubt; inactive = no such curve, though single readings can be large or run the other way. The list shows a part of the results.

Amino acid sequences for entries named in this document (tags omitted). A change or cut given only in a name is not applied to a line headed by its entry.
UniProt C7C422: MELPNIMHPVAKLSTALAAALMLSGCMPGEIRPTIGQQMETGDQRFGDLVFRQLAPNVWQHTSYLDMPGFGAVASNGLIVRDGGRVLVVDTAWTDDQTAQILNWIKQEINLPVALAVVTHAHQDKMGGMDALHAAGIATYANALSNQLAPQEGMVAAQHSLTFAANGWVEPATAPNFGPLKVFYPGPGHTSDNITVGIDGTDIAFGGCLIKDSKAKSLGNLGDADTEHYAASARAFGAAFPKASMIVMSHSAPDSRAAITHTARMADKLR

Each compound was assayed against Metallo-beta-lactamase type 2 (Klebsiella pneumoniae) (UniProt C7C422) (assay: qHTS to identify inhibitors of the New Delhi Metallo-beta-lactamase (NDM): primary screen against the NCATS Gemini Collection). Conditions: NDM-1 enzyme, meropenem hydrolysis, absorbance 300 nm; at 38.4 µM (top of the series) unless noted.
Method in brief: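 NDM-1 at 2 nM final in 50 mM HEPES pH 7.0, 1 uM ZnSO4, 0.01% Tween20, preincubated >30 min with compound. Meropenem 50 uM final added; absorbance at 300 nm after 30 min.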
Also: % of control where 0% means no effect.

Activity % (negative = inhibition), inactive:
CCOc1ccccc1CN1CCN(Cc2nccn2CC)CC1CCO (centres undefined) -1.34%
CC1=C[C@@H](CNC(=O)C(C)(C)C)[C@H](C(C)C)C[C@H]1Cc1nnc(-c2ccncc2)o1 -12.9% [at 57.5 µM]
O=C(C1CN(C2CCCC2)C(=O)N1)N1CCN(c2ncccn2)CC1 (centres undefined) 6.52%
CCOC(=O)C1CCN(C(=O)c2ccc3nccn3c2)CC1 16.6% [at 57.5 µM]
CC(=O)N(C1CC1)C1CCOC2(CCN(C(=O)Cn3c(=O)oc4ccccc43)CC2)C1 (centres undefined) 11.5%
COCCNC(=O)[C@H]1C[C@H](Oc2ccccc2)CN1Cc1ccncc1 0.46%
CCn1c(CN(C)C)nnc1C1CCN(C(=O)Cn2nc(C)cc2N)CC1 0.734%
OC1(c2csc(CN3CCOCC3)n2)CCN(Cc2ccc(F)cc2)CC1 9.97% [at 57.5 µM]
COCCNC(=O)C1COC2(CCN(C(=O)C3CC3)CC2)N1C(=O)c1cccc(OC)c1 (centres undefined) -3.04%
Cn1cc(CN2C[C@@H]3C[C@H](C2)c2ccc(NS(=O)(=O)c4cccc(F)c4)c(=O)n2C3)c2ccccc21 83.7%
COc1cccc(-c2ccccc2NC(=O)C2CCN(CC=C(C)C)CC2)c1 0.918%
CN(C)[C@@H]1CN(Cc2ccc(C#N)cc2)C[C@H]1CO -0.958%
COCc1ccc(C(=O)N2CCCC(CCc3cccc(OC)c3)C2)o1 (centres undefined) 2%
COCC1(C(=O)N2CCN(C)C3(CCNC(=O)CC3)C2)CCC1 (centres undefined) -0.987%
O=C(NCCCc1ccccc1)c1nc2sccn2c1-c1cccc(C(F)(F)F)c1 9.83% [at 57.5 µM]
Cn1c(CCNC(=O)CC2CCOCC2)nc2ccccc21 9.59%
CCn1ccc(C(=O)N2C[C@@H]3CCCN4CCC[C@@H]([C@H]34)[C@H]2CCCC(=O)NCC2CC2)n1 -0.472%
CCCc1nc(CC)n2cc[nH]c(=O)c12 1.13%
COCCn1c(C)nnc1-c1cc(-c2ccc(OC)c(OC)c2)ccn1 22.3% [at 57.5 µM]
COCCn1c(C)cnc1CCNS(=O)(=O)Cc1ccccc1F -0.38%
O=C(O)CCC(=O)N1CC[C@@H]2[C@H]1C(=O)N(c1ccc(F)c(Cl)c1)C(=O)N2Cc1ccccc1 -0.502%
Cc1ccc(C2(C(=O)N3C[C@@H](CN4CCCCC4)[C@@H](CO)C3)CC2)cc1 1.63%
COC(=O)[C@@H]1Cc2nc[nH]c2CN1C1CCOCC1 25.3% [at 77.1 µM]
c1cc(-c2n[nH]c(CC3CCNC3)n2)ccn1 (centres undefined) 24.7%
Cc1noc(C)c1S(=O)(=O)N1C[C@@H](C(=O)O)[C@H](c2ccccn2)C1 11.2%
CC(=O)Nc1ccc(C(=O)N2CCC3(CC2)CN(C)CCN3C)c(C)c1 31.2%
COc1cccc(CCC(=O)N2CCC3(CC2)NC(=O)N(c2cccc(F)c2)N3)c1 -0.48%
c1ccc(C2(c3ccccc3)CCCN(Cc3cscn3)C2)cc1 -5.05%
COc1ccc(CN2CCn3c(nnc3C3CCCNC3)C2)cc1 (centres undefined) 6.75% [at 57.5 µM]
COC[C@H]1C[C@@H](NC(=O)c2c(-c3ccccc3)noc2C)[C@H](O)[C@@H]1O -6.53% [at 57.5 µM]
Nc1nccc(N2CCC3(CCC(=O)N(CC4CCCO4)C3)CC2)n1 (centres undefined) 0.24%
COc1ccc(NC(=O)N2CCOC(c3ccc(Cl)cc3)C2)c(C)c1 (centres undefined) -1.55%
CC(C)c1ccc(CN2CC(CNC(=O)C3CCOCC3)C3(C2)CN(c2ccccc2)C3)cc1 (centres undefined) -12.6%
COc1cccc(Nc2cn(C)c(=O)n3cc(COc4ccccc4)nc23)c1 4.67% [at 57.5 µM]
C=CCNC(=O)c1cnn2cc(C)ccc12 7.7% [at 77.1 µM]
CC(C)Cc1cc(C(=O)N2CCOC(C(F)(F)F)C2)n[nH]1 (centres undefined) -9.65%
CCc1nc2cc(N3CCCC(C(=O)O)C3)cnc2nc1CC (centres undefined) 3.54%
CCc1cc(C(=O)N2CCC3(CCC(=O)N(CCc4cnc[nH]4)C3)CC2)cs1 -0.143%
N#Cc1cccc(C(=O)N2CCNc3cnc(Nc4cccc(F)c4)nc3C2)c1 38.6% [at 57.5 µM]
CC1(C)C[C@H](NC2CCC2)[C@@]2(CCC(=O)NCc3cccnc3)CC[C@](C)(O)C[C@@H]12 -8.53% [at 57.5 µM]
CCNC(=O)[C@@H]1C[C@H](NC(C)=O)CN1C1CCN(c2ccc(C)cc2)CC1 7.81%
COc1cccc(-c2ccc(C(=O)NCCNC(=O)Cc3ccc(F)cc3)cc2)c1 3.44%
COc1ccc(C(=O)N2CCN(C(=O)N3CC4CC(C3)[C@H]3CCCC(=O)N3C4)CC2)c(OC)n1 (some centres undefined) -5.84%
CCN1CCN(C(=O)c2cc(-c3ccccc3)cn2C)CC1 13.2%
COCc1cccc(-c2n[nH]c3c2CC(=O)N(CCc2ccncc2)C3)c1 49% [at 57.5 µM]
Cc1noc(C)c1S(=O)(=O)NCCC1CN(c2cnn(C)c(=O)c2)CCO1 (centres undefined) 4.26%
CN1C(=O)CO[C@H]2CN(Cc3c[nH]c4ccccc34)C[C@H]21 10.3% [at 77.1 µM]
O=C(COc1ccccc1)N1CCC(c2n[nH]c(=O)n2Cc2ccc(F)cc2)CC1 20.7%
COCC1CN(C)CC12CCN(C(=O)c1cc3ccccc3[nH]1)CC2 (centres undefined) 5.73%
COCC[C@]1(O)CCN(C(=O)CCCc2ccccc2)C[C@H]1C 1.01%
CCc1nc2c(=O)n(CC(=O)NCc3ccco3)nc(C)c2s1 5.18%
COc1cccc(-c2ccc(CN3CCCC(N[S+](=O)([O-])c4ccc(C)cc4)C3)cc2)c1 (centres undefined) 15%
CCN(Cc1ccncc1)C(=O)CC1C(=O)NCCN1CCc1ccccc1 (centres undefined) 3.44%
O=C(COc1ccccc1)N1C[C@@H]2C[C@H](C1)c1c(NS(=O)(=O)c3ccccc3)ccc(=O)n1C2 2.03%
COc1ccccc1OCCNC(=O)[C@]12CCCC[C@@H]1N(C)C(=O)CC2 -2.39%
CC(C)N1C[C@@H](COCc2ccccc2)[C@H](c2ccccc2)[S+]1(=O)[O-] 2.62%
COc1ccc(C2(C(=O)N3C[C@@H](CO)[C@H](c4ccccn4)C3)CC2)cc1 4.47%
COCCN(CCOC)C(=O)[C@@H](C)C1CC[C@@]2(C)CC[C@H](NC(=O)c3cncnc3)[C@@H](C)[C@@H]2[C@H]1O (some centres undefined) -5.02%
COCCn1ccc2ccc(C(=O)Nc3ccc4c(c3)C(=O)N3CCC[C@H]3C(=O)N4)cc21 29.2%
CN(C)C1CCCN(C(=O)c2csc3c2CCCC3)CC1 (centres undefined) -0.9%
COc1cccc(C(=O)N[C@H]2[C@H](O)[C@H](O)C[C@@H]2c2cccnc2)c1 0.332% [at 57.5 µM]
CN(C)CCNC(=O)c1ccc(-c2nnc3ccc(NC(=O)C4CCC4)cn23)cc1 4.07%
CN(C(=O)Cc1ccsc1)C1CCc2nn(C)c(=O)n2CC1 (centres undefined) 1.4%
CS(=O)(=O)N1Cc2ccccc2CC2(CCCN2Cc2cccnc2)C1 (centres undefined) 16.8%
Cc1cc(-c2cnc(Nc3ccc(F)cc3)c3c2CCO3)ccn1 7.71% [at 57.5 µM]
COc1ccccc1CC(=O)NCCn1cccc1-c1nc(-c2ccccc2)no1 5.16%
COCc1nnc2n1CCC(NC(=O)C1CC=CC1)CC2 (centres undefined) -1.58%
Cc1cnc(-c2ccncc2)n1CC1CCN(C(=O)CCCc2ccccc2)C1 (centres undefined) 3.07%
COc1ccc(Cn2cc(C(C(=O)O)N(C)Cc3cccnc3)cn2)cc1 (centres undefined) -0.42%
Cc1cc(Cl)c2oc(C(=O)N(Cc3c(C)nn(C)c3C)C3CC3)c(C)c2c1 11.2%
O=C(NCc1ccc(Cl)cc1)c1ccc2ccnn2c1 8.25% [at 57.5 µM]
Nc1ncccc1CN1C[C@H]2CN(C(=O)C3CCC3)C[C@@]2(C(=O)O)C1 9.33%
COC(=O)[C@H](Cc1ccc(OC)cc1)NC(=O)[C@H]1CN(S(=O)(=O)c2ccccc2)CCN1S(=O)(=O)c1ccccc1 -0.794%
NC(=O)c1cccc(NC(=O)c2cccc(CN3CCNC(=O)C3)c2)c1 27.1%
FC(F)(F)c1ccc(CN2CC(N3CCc4ccccc43)C2)cc1 28.1%
OC[C@@H]1O[C@H](CNCc2ccc(F)cc2)[C@H](N2CCOCC2)[C@@H]1O 92.1% [at 57.5 µM]
O=C(C1CCCN1[S+](=O)([O-])c1cccs1)N1CCC(N2CCOCC2=O)CC1 (centres undefined) 0.988%
COc1cccc(-c2nccc3c(=O)cc(N(C)C)oc23)c1 45.9% [at 77.1 µM]
C=CCCC(CN1CCCOCC1)Oc1cc(C#N)ccn1 (centres undefined) 3.12%
CC(C)(C(=O)O)C1CCOCC1 0%
CCn1nccc1C(=O)N1CCC([C@H]2[C@@H](OC)CN2C(C)C)CC1 0.0882%
COC1CCOC2(CCN(C(=O)c3cc(-c4ccccc4)n[nH]3)CC2)C1 (centres undefined) -1.12%
O=C(Nc1ccc2c(N3CCCC3)ncnc2c1)c1cc(F)ccc1Cl 13%
COc1ccc(NC(=O)N2CCCC(Cc3noc(-c4ccncc4)n3)C2)cc1 (centres undefined) 18%
